Some results were stated once for a whole list of compounds, not compound by compound.
Molecular target: T1, human CCR10 (Homo sapiens, UniProt P46092)
T1 construct: expressed in transfected cells; host or cells: KJMGER8 cells (Namalwa cell-derived cell line); expression induced with 10 nmol/L beta-estradiol for 24 hr
T1 sequence (P46092 1-362): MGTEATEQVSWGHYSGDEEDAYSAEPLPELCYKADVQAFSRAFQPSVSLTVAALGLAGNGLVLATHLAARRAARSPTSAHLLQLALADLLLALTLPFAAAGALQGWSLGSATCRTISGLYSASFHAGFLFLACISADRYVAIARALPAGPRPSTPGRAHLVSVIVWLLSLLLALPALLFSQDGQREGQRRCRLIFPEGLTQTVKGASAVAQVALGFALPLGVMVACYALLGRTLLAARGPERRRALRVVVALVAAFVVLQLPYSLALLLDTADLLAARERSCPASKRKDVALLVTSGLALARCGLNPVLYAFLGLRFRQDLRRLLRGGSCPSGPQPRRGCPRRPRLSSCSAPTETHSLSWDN
Assay: Calcium assay of human CCR10 (CCR10 antagonistic effect, CTACK-induced increase of intracellular calcium ion concentration in hCCR10G16 cells)
Format: cell-based
Details: human CCR10-expressing hCCR10G16 cells, 300 nmol/L human recombinant CTACK, Fluo-3, FDSS; read-out: concentration at which the increase in the calcium ion concentration is inhibited by not less than 50%

| SMILES | IC50 [nM] |
| --- | --- |
| Cc1c(Nc2ccc3c(cnn3C)c2)c(C(=O)N2CCC(c3ccc(F)cc3)CC2)cn(C2CCCC2)c1=O [Compound 212, 1-cyclopentyl-5-[4-(4-fluorophenyl)piperidine-1-carbonyl]-3-methyl-4-(1-methyl-1H-indazol-5-ylamino)pyridin-2(1H)-one] | ≤ 1000 |
| Cc1ccc(F)cc1Nc1c(C(=O)N2CCC(c3ccc(F)cc3)CC2)cn(C)c(=O)c1Cl [Compound 126, 3-chloro-4-(5-fluoro-2-methylphenylamino)-5-[4-(4-fluorophenyl)piperidine-1-carbonyl]-1-methylpyridin-2(1H)-one] | ≤ 1000 |
| Cn1cc(C(=O)N2CCC(c3ccc(F)cc3)CC2)c(Nc2ccc(C#N)c(Cl)c2)c(Cl)c1=O [Compound 67, 2-chloro-4-{3-chloro-5-[4-(4-fluorophenyl)piperidine-1-carbonyl]-1-methyl-2-oxo-1,2-dihydropyridin-4-ylamino}benzonitrile] | ≤ 1000 |
| COn1cc(C(=O)N2CCC(c3ccc(F)cc3)CC2)c(NCc2ccccc2)c(Cl)c1=O [Compound 220, 4-(benzylamino)-3-chloro-5-[4-(4-fluorophenyl)piperidine-1-carbonyl]-1-methoxypyridin-2(1H)-one] | ≤ 1000 |
| Cc1cc(F)ccc1Nc1cc(=O)n(CCCC#N)cc1C(=O)N1CCC(c2ccc(F)cc2)CC1 [Compound 28, 4-{4-(4-fluoro-2-methylphenylamino)-5-[4-(4-fluorophenyl)piperidine-1-carbonyl]-2-oxopyridin-1(2H)-yl}butanenitrile] | ≤ 1000 |
| CCS(=O)(=O)NC(=O)Cn1cc(C(=O)N2CCC(c3ccc(F)cc3)CC2)c(Nc2cc(Cl)ccc2Cl)cc1=O [Compound 1, 2-{4-(2,5-dichlorophenylamino)-5-[4-(4-fluorophenyl)piperidine-1-carbonyl]-2-oxopyridin-1(2H)-yl}-N-(ethylsulfonyl)acetamide] | ≤ 1000 |
| Cc1ccc(Cl)cc1Nc1c(C(=O)N2CCC(c3ccc(F)cc3)CC2)cn(OCc2cccnc2)c(=O)c1Cl [Compound 198, 3-chloro-4-(5-chloro-2-methylphenylamino)-5-[4-(4-fluorophenyl)piperidine-1-carbonyl]-1-(pyridin-3-ylmethoxy)pyridin-2(1H)-one] | ≤ 1000 |
| Cc1cc(F)ccc1Nc1cc(=O)n(C)cc1C(=O)N1CCC(c2ccc(F)cc2)CC1 [Compound 36, 4-(4-fluoro-2-methylphenylamino)-5-[4-(4-fluorophenyl)piperidine-1-carbonyl]-1-methylpyridin-2(1H)-one] | ≤ 1000 |
| Cc1cc(Cl)ccc1Nc1c(C(=O)N2CCC(c3ccc(F)cc3)CC2)cn(Cc2cccnc2)c(=O)c1Cl [Compound 152, 3-chloro-4-(4-chloro-2-methylphenylamino)-5-[4-(4-fluorophenyl)piperidine-1-carbonyl]-1-(pyridin-3-ylmethyl)pyridin-2(1H)-one] | ≤ 1000 |
| Cc1ccc(Cl)cc1Nc1c(C(=O)N2CCC(c3ccc(F)cc3)CC2)cn(OCCO)c(=O)c1Cl [Compound 204, 3-chloro-4-(5-chloro-2-methylphenylamino)-5-[4-(4-fluorophenyl)piperidine-1-carbonyl]-1-(2-hydroxyethoxyl)pyridin-2(1H)-one] | ≤ 1000 |
| O=C(c1cn(OCCO)c(=O)c(Cl)c1NC1(c2ccccn2)CC1)N1CCC(c2ccc(F)cc2)CC1 [Compound 236, 3-chloro-5-[4-(4-fluorophenyl)piperidine-1-carbonyl]-1-(2-hydroxyethoxy)-4-[1-(pyridin-2-yl)cyclopropylamino]pyridin-2(1H)-one] | ≤ 1000 |
| Cn1cc(C(=O)N2CCC(c3ccc(F)cc3)CC2)c(Nc2cc(F)ccc2Cl)c(Cl)c1=O [Compound 127, 3-chloro-4-(2-chloro-5-fluorophenylamino)-5-[4-(4-fluorophenyl)piperidine-1-carbonyl]-1methylpyridin-2(1H)-one] | ≤ 1000 |
| COC(=O)c1coc(Cn2cc(C(=O)N3CCC(c4ccc(F)cc4)CC3)c(Nc3cc(C)ccc3Cl)cc2=O)n1 [Compound 9, methyl 2-({4-(2-chloro-5-methylphenylamino)-5-[4-(4-fluorophenyl)piperidine-1-carbonyl]-2-oxopyridin-1(2H)-yl}methyl)oxazole-4-carboxylate] | ≤ 1000 |
| Cn1cc(C(=O)N2CCC(c3ccc(F)cc3)CC2)c(Nc2cc(F)c(F)cc2F)c(Cl)c1=O [Compound 59, 3-chloro-5-[4-(4-fluorophenyl)piperidine-1-carbonyl]-1-methyl-4-(2,4,5-trifluorophenylamino)pyridin-2(1H)-one] | ≤ 1000 |
| Cn1cc(C(=O)N2CCC(c3ccc(F)cc3)CC2)c(Nc2cccc(C#N)c2)c(Cl)c1=O [Compound 95, 3-{3-chloro-5-[4-(4-fluorophenyl)piperidine-1-carbonyl]-1-methyl-2-oxo-1,2-dihydropyridin-4-ylamino}benzonitrile] | ≤ 1000 |
| Cc1ccc(Nc2c(C(=O)N3CCC(c4ccc(F)cc4)CC3)cn(C3CCCC3)c(=O)c2Cl)c(C)n1 [Compound 214, 3-chloro-1-cyclopentyl-4-(2,6-dimethylpyridin-3-ylamino)-5-[4-(4-fluorophenyl)piperidine-1-carbonyl]pyridin-2(1H)-one] | ≤ 1000 |
| Cn1cc(C(=O)N2CCC(c3ccc(F)cc3)CC2)c(Nc2ccc(C#N)c(F)c2)c(Cl)c1=O [Compound 109, 4-{3-chloro-5-[4-(4-fluorophenyl)piperidine-1-carbonyl]-1-methyl-2-oxo-1,2-dihydropyridin-4-ylamino}-2-fluorobenzonitrile] | ≤ 1000 |
| Cc1ccc(Nc2c(C(=O)N3CCC(c4ccc(F)cc4)CC3)cn(C)c(=O)c2Cl)cn1 [Compound 157, 3-chloro-5-[4-(4-fluorophenyl)piperidine-1-carbonyl]-1-methyl-4-(6-methylpyridin-3-ylamino)pyridin-2(1H)-one] | ≤ 1000 |
| Cc1ccc(Cl)c(Nc2cc(=O)n(Cc3noc(=O)[nH]3)cc2C(=O)N2CCC(c3ccc(F)cc3)CC2)c1 [Compound 12, 3-({4-(2-chloro-5-methylphenylamino)-5-[4-(4-fluorophenyl)piperidine-1-carbonyl]-2-oxopyridin-1 (2H)-yl}methyl)-1,2,4-oxadiazol-5(4H)-one] | ≤ 1000 |
| Cn1cc(C(=O)N2CCC(c3ccc(F)cc3)CC2)c(Nc2cc(C#N)ccc2Cl)c(Cl)c1=O [Compound 117, 4-chloro-3-{3-chloro-5-[4-(4-fluorophenyl)piperidine-1-carbonyl]-1-methyl-2-oxo-1,2-dihydropyridin-4-ylamino}benzonitrile] | ≤ 1000 |
| COc1ccc(Nc2c(C(=O)N3CCC(c4ccc(F)cc4)CC3)cn(C)c(=O)c2Cl)cc1C [Compound 93, 3-chloro-5-[4-(4-fluorophenyl)piperidine-1-carbonyl]-4-(4-methoxy-3-methylphenylamino)-1-methylpyridin-2(1H)-one] | ≤ 1000 |
| Cn1cc(C(=O)N2CCC(c3ccc(F)cc3)CC2)c(Nc2ccc3c(c2)S(=O)(=O)C=C3)c(Cl)c1=O [Compound 188, 3-chloro-4-(1,1-dioxobenzo[b]thiophen-6-ylamino)-5-[4-(4-fluorophenyl)piperidine-1-carbonyl]-1-methylpyridin-2(1H)-one] | ≤ 1000 |
| Cn1cc(C(=O)N2CCC(c3ccc(F)cc3)CC2)c(Nc2ccc(C(F)(F)F)cc2C#N)c(Cl)c1=O [Compound 165, 2-{3-chloro-5-[4-(4-fluorophenyl)piperidine-1-carbonyl]-1-methyl-2-oxo-1,2-dihydropyridin-4-ylamino}-5-(trifluoromethyl)benzonitrile] | ≤ 1000 |
| Cc1ccc(Cl)cc1Nc1c(C(=O)N2CCC(c3ccc(F)cc3)CC2)cn(CCO)c(=O)c1Cl [Compound 186, 3-chloro-4-(5-chloro-2-methylphenylamino)-5-[4-(4-fluorophenyl)piperidine-1-carbonyl]-1-(2-hydroxyethyl)pyridin-2(1H)-one] | ≤ 1000 |
| COc1ccc(C)c(Nc2c(C(=O)N3CCC(c4ccc(F)cc4)CC3)cn(C)c(=O)c2Cl)c1 [Compound 83, 3-chloro-5-[4-(4-fluorophenyl)piperidine-1-carbonyl]-4-(5-methoxy-2-methylphenylamino)-1-methylpyridin-2(1H)-one] | ≤ 1000 |
| O=C(c1cn(C2CC2)c(=O)c(Cl)c1Nc1ccc2c(c1)COC2)N1CCC(c2ccc(F)cc2)CC1 [Compound 215, 3-chloro-1-cyclopropyl-4-(1,3-dihydroisobenzofuran-5-ylamino)-5-[4-(4-fluorophenyl)piperidine-1-carbonyl]pyridin-2(1H)-one] | ≤ 1000 |
| Cc1cccc(Nc2c(C(=O)N3CCC(c4ccc(F)cc4)CC3)cn(C)c(=O)c2Cl)c1C [Compound 105, 3-chloro-4-(2,3-dimethylphenylamino)-5-[4-(4-fluorophenyl)piperidine-1-carbonyl]-1-methylpyridin-2(1H)-one] | ≤ 1000 |
| Cn1ccnc1Cn1cc(C(=O)N2CCC(c3ccc(F)cc3)CC2)c(NCc2ccccc2)cc1=O [Compound 30, 4-(benzylamino)-5-[4-(4-fluorophenyl)piperidine-1-carbonyl]-1-[(1-methyl-1H-imidazol-2-yl)methyl]pyridin-2(1H)-one] | ≤ 1000 |
| Cc1cc(Cl)ccc1Nc1c(C(=O)N2CCC(c3ccc(F)cc3)CC2)cn(C2CC2)c(=O)c1Cl [Compound 53, 3-chloro-4-(4-chloro-2-methylphenylamino)-1-cyclopropyl-5-[4-(4-fluorophenyl)piperidine-1-carbonyl]pyridin-2(1H)-one] | ≤ 1000 |

From US9643952B2, “Pyridone compound” (KYOWA HAKKO KIRIN CO., LTD., priority 2012, dated 2017)
